From the supplement of paper PMC11348887
Where a name gives a salt, the structure may show the parent alone. Some of the results follow. Small differences around the control level are noise.

system: hPSC-derived cortical neurons (WA09); assay: nucleus roundness z-score vs screen plate; higher = rounder nuclei (more mature); details: 5 µM; treatment: days 7-14 after plating, readout day 21

Row | SMILES | nucleus roundness z-score
1 | CN(NC(=O)CC(=O)NN(C)C(=S)c1ccccc1)C(=S)c1ccccc1 [Elesclomol (STA-4783)] | 0.425
2 | O=C(Cc1cccc(OC(F)(F)F)c1)Nc1ccc(CCCCc2nnc(NC(=O)Cc3ccccn3)s2)nn1 | 0.206
3 | COc1ccc(CC(C)NCC(O)c2ccc(O)c(NC=O)c2)cc1 (stereo not drawn) [Formoterol Hemifumarate] | -3.28
4 | O=C(C1CCCCC1)N1CC(=O)N2CCc3ccccc3C2C1 (stereo not drawn) [Praziquantel] | 0.434
5 | COc1ccc(C(=O)NCc2ccc(OCCN(C)C)cc2)cc1OC [Itopride hydrochloride] | 1.16
6 | CN(CCOc1ccc(CC2SC(=O)NC2=O)cc1)c1ccccn1 (stereo not drawn) [Rosiglitazone] | -0.118
7 | Cc1cc(F)c(C(=O)Nc2cccc(-c3nncn3C(C)C)n2)cc1-n1cnc(C2CC2)c1 [Selonsertib (GS-4997)] | 0.202
8 | C[N+](C)(CCOc1ccccc1)Cc1ccccc1.O=C([O-])c1cc2ccccc2cc1O [Bephenium Hydroxynaphthoate] | 0.505
